Results deposited as PubChem BioAssay AID1259308 (NCATS, 2017)
Shown is one part, drawn at random, of about 59,000 reagents tested. In the full data, about 1,510 (2.6%) were called active. 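Calls use total luciferase alone and ignore viability, so some active siRNAs may act by altering cell number.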 Reagents against one gene are numbered here. Further read-outs or replicates are left out here. Reagent sequences are not shown.

Test: 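Candidate targets for better recombinant protein yield in mammalian cells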 (primary screen)
System: human HEK293 embryonic kidney cells stably expressing firefly luciferase (HEK-CMV-Luc2-Hygro)
Reagents: single siRNA against human genes, 0.8 pmol siRNA per well
Duration: 72 h
Measured: 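Luciferase light (ONE-Glo) measured on one replicate plate set and viability (CellTiter-Glo) on the other, scaled to a negative control siRNA, with robust z-scores and luciferase per cell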
Reading the numbers: total luciferase, z-score: higher = more reporter protein produced
Rule for the call: 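Active when the median/MAD z-score for overall luciferase is greater than 3; a gene was taken forward for validation with new siRNAs if at least two of its three siRNAs passed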
Meaning of the calls: active = raised luciferase; inactive = no rise

The opening 7 records, to show the layout:
no.	Target gene	siRNA no.	total luciferase, z-score	activity call
1	MAN1C1	1	-0.615	inactive
2	MAN1C1	2	-0.62	inactive
3	MAN1C1	3	5.62	active
4	KREMEN1	1	0.686	inactive
5	KREMEN1	2	0.253	inactive
6	KREMEN1	3	-0.96	inactive
7	TNN	1	0.192	inactive

Results, repeating the preview:
no.	Target gene	siRNA no.	total luciferase, z-score	activity call
1	MAN1C1	1	-0.615	inactive
2	MAN1C1	2	-0.62	inactive
3	MAN1C1	3	5.62	active
4	KREMEN1	1	0.686	inactive
5	KREMEN1	2	0.253	inactive
6	KREMEN1	3	-0.96	inactive
7	TNN	1	0.192	inactive
8	TNN	2	0.838	inactive
9	TNN	3	0.197	inactive
10	EFHC1	1	-0.248	inactive
11	EFHC1	2	0.00467	inactive
12	EFHC1	3	0.671	inactive
13	C11orf65	1	-0.18	inactive
14	C11orf65	2	0.479	inactive
15	C11orf65	3	0.309	inactive
16	GPX1	1	-0.149	inactive
17	GPX1	2	-0.183	inactive
18	GPX1	3	-1.43	inactive
19	KRTAP17-1	1	-0.252	inactive
20	KRTAP17-1	2	1.07	inactive
21	KRTAP17-1	3	-1.95	inactive
22	TMEM107	1	0.711	inactive
23	TMEM107	2	-0.659	inactive
24	TMEM107	3	-0.0386	inactive
25	POLR1H	1	0.787	inactive
26	POLR1H	2	-0.172	inactive
27	POLR1H	3	-0.592	inactive
28	IMMT	1	-0.147	inactive
29	IMMT	2	-0.708	inactive
30	IMMT	3	-0.927	inactive
31	SEMA3C	1	0.774	inactive
32	SEMA3C	2	0.354	inactive
33	SEMA3C	3	0.217	inactive
34	CBX4	1	0.55	inactive
35	CBX4	2	2.58	inactive
36	CBX4	3	-1.23	inactive
37	TMEM263	1	-1.29	inactive
38	TMEM263	2	0.557	inactive
39	TMEM263	3	-0.322	inactive
40	CELSR2	1	0.444	inactive
41	CELSR2	2	1.62	inactive
42	CELSR2	3	-0.131	inactive
43	HAGHL	1	-0.123	inactive
44	HAGHL	2	-0.831	inactive
45	HAGHL	3	1.63	inactive
46	PLTP	1	-2.21	inactive
47	PLTP	2	0.715	inactive
48	PLTP	3	-0.202	inactive
49	RBMX	1	0.853	inactive
50	RBMX	2	-0.829	inactive
51	RBMX	3	-0.437	inactive
52	ZNF433	1	-0.817	inactive
53	ZNF433	2	1.74	inactive
54	ZNF433	3	-0.444	inactive
55	CX3CL1	1	-0.0237	inactive
56	CX3CL1	2	0.155	inactive
57	CX3CL1	3	-0.019	inactive
58	LINC02027	1	-0.319	inactive
59	LINC02027	2	0.304	inactive
60	LINC02027	3	2.18	inactive
61	ZNF736	1	0.561	inactive
62	ZNF736	2	1.36	inactive
63	ZNF736	3	1.19	inactive
64	CD46	1	-0.376	inactive
65	CD46	2	-0.0431	inactive
66	CD46	3	0.435	inactive
67	TRGV5	1	-0.00069	inactive
68	TRGV5	2	-0.0536	inactive
69	TRGV5	3	-0.235	inactive
70	NEUROD1	1	-0.51	inactive
71	NEUROD1	2	0.425	inactive
72	NEUROD1	3	0.47	inactive
73	NCOR2	1	-1.64	inactive
74	NCOR2	2	-0.736	inactive
75	NCOR2	3	-0.646	inactive
